Laboratory results: publication PMC11449273
No constants are given. Whether binding was seen depends on the method and setting. Binding seen in cells or lysates may run through a third protein. Some results given as binding are weak or reduced against the parent protein; the word gives no strength. Sequences can lack the tags named with a protein.

Amino acid sequences for entries named in this document (tags omitted).
UniProt P06748: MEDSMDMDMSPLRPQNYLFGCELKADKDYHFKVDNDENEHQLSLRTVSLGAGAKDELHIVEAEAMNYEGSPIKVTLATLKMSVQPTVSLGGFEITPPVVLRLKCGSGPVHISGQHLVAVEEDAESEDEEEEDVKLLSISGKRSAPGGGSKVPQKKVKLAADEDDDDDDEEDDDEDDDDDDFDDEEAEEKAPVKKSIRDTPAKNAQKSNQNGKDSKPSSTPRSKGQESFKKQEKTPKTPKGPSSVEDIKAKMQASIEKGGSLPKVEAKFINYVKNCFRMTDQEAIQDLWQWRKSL

Target: nucleophosmin (NPM), endogenous in H1299 transfectants (human (endogenous in H1299)) (UniProt P06748)
Experiment: co-IP; total cell extracts of H1299-PG-p53-(WT, 175, 273) cells; sequential co-immunoprecipitation and immunoblotting with nucleophosmin, plakoglobin and p53 antibodies

B1: plakoglobin-FLAG, exogenously expressed in H1299 cells (protein, UniProt P14923 1-745)
chain: MEVMNLMEQPIKVTEWQQTYTYDSGIHSGANTCVPSVSSKGIMEEDEACGRQYTLKKTTTYTQGVPPSQGDLEYQMSTTARAKRVREAMCPGVSGEDSSLLLATQVEGQATNLQRLAEPSQLLKSAIVHLINYQDDAELATRALPELTKLLNDEDPVVVTKAAMIVNQLSKKEASRRALMGSPQLVAAVVRTMQNTSDLDTARCTTSILHNLSHHREGLLAIFKSGGIPALVRMLSSPVESVLFYAITTLHNLLLYQEGAKMAVRLADGLQKMVPLLNKNNPKFLAITTDCLQLLAYGNQESKLIILANGGPQALVQIMRNYSYEKLLWTTSRVLKVLSVCPSNKPAIVEAGGMQALGKHLTSNSPRLVQNCLWTLRNLSDVATKQEGLESVLKILVNQLSVDDVNVLTCATGTLSNLTCNNSKNKTLVTQNSGVEALIHAILRAGDKDDITEPAVCALRHLTSRHPEAEMAQNSVRLNYGIPAIVKLLNQPNQWPLVKATIGLIRNLALCPANHAPLQEAAVIPRLVQLLVKAHQDAQRHVAAGTQQPYTDGVRMEEIVEGCTGALHILARDPMNRMEIFRLNTIPLFVQLLYSSVENIQRVAAGVLCELAQDKEAADAIDAEGASAPLMELLHSRNEGTATYAAAVLFRISEDKNPDYRKRVSVELTNSLFKHDPAAWEAAQSMIPINEPYGDDMDATYRPMYSSDVPLDPLEMHMDMDGDYPIDTYSDGLRPPYPTADHMLA
  binding: binds
